This is one part of the list.
Target: T1, OsSMF1 (Oryza sativa, UniProt Q6ZLB0 1-436)
T1 sequence: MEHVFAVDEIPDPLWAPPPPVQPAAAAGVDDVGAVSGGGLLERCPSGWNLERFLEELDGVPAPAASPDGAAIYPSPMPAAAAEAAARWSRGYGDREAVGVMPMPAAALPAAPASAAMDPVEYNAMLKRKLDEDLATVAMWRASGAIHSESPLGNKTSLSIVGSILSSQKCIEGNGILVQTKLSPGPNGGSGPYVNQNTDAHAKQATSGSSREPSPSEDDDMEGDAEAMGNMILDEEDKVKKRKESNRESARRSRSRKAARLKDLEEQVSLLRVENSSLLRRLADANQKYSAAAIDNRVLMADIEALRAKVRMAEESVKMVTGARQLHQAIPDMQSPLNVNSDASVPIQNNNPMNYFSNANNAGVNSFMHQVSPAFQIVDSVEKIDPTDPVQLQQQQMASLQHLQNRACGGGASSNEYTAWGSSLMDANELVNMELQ
Test: protein-binding microarray (RPBM); PBS, 2% BSA, 51.3 ng/ul salmon testes DNA, 50 uM zinc acetate, 200 nM TF, 25 C, 1 h; high values mean tight binding
Details: protein: recombinant; tags: N-terminal polyhistidine and DsRed monomer fusion (pET32a); chain copies: 2; label: CyDye5-dUTP incorporated in the synthesized complementary strand; 3' TTTTT single-stranded linker to array surface; dsDNA, one strand shown
How it was run: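 The binding signal is fluorescence intensity per array feature (arbitrary units). Readings came from an Axon 4000B scanner after a washed, 2% BSA-blocked, double-stranded custom Agilent array had been incubated for 1 h at 25 °C with 200 nM protein and 50 µM zinc acetate. The protein was a Ni–NTA-purified transcription factor fused N-terminally to polyhistidine and DsRed, expressed in E. coli BL21-CodonPlus.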

Sequence | binding signal
TTTACGACTGCTAATCGGCCTGAATGAGGCCCATCTATACCGGAGTCACCTAGTGCAG | 3300 fluorescence intensity (a.u.)
TTTTCTTTCTTAACTGCGTGACGTGTTCGATTCCTCGCCCCGGAGTCACCTAGTGCAG | 10800 fluorescence intensity (a.u.)
CCACTTTTATCTTGAAATATTACATCAGCAATCTAGAAAACGGAGTCACCTAGTGCAG | 3740 fluorescence intensity (a.u.)
GTCTTCACAAATCCGATGACGCCACGTCATCTATCCGGCCCGGAGTCACCTAGTGCAG | 46400 fluorescence intensity (a.u.)
TATAAGTTCGGTGTTACGTGTGCAGTGGTGTAGTGGTGCGCGGAGTCACCTAGTGCAG | 5760 fluorescence intensity (a.u.)
CGAGACCATCGGCGGCCACGCTCTTACACGCCATCAACCGCGGAGTCACCTAGTGCAG | 5440 fluorescence intensity (a.u.)
AACCTAGTGTCAGCTACCTATTTCCCACCATCCTCAGCTACGGAGTCACCTAGTGCAG | 3320 fluorescence intensity (a.u.)
AAGTAGTCCTAGCTAGTGCTGCGTCCAGTTTTGTTTCTTGCGGAGTCACCTAGTGCAG | 19400 fluorescence intensity (a.u.)
GTTGCTCGGATCGGATAAGACAATACAGTTATTTGTGTTACGGAGTCACCTAGTGCAG | 8900 fluorescence intensity (a.u.)
CGAGGTCGAGGCTGTTGCGTGGCGCCTGGAGGCCTCCGTCCGGAGTCACCTAGTGCAG | 3680 fluorescence intensity (a.u.)
TACAAGTATAAAACTTTAGATACGTGGGATTAACACGTCACGGAGTCACCTAGTGCAG | 6470 fluorescence intensity (a.u.)
ATCCCCACCGTTGACCGAAGTTGACCTCCAAGAATCCTGACGGAGTCACCTAGTGCAG | 3620 fluorescence intensity (a.u.)
TAAATATACTTGATTTACTGCTGTGTGACCATATATGCTTCGGAGTCACCTAGTGCAG | 3590 fluorescence intensity (a.u.)
CATGTTTGAGATTGCGTCATGATCGGATAATGTTGCGTCACGGAGTCACCTAGTGCAG | 7810 fluorescence intensity (a.u.)
GAGCCTCGTCCCTATCCCACATCACCTTGCTCGATCGCCTCGGAGTCACCTAGTGCAG | 3220 fluorescence intensity (a.u.)
TTTGGTTCCTGGTGTTCGGGCTGAAGGCCACATAGGAGCACGGAGTCACCTAGTGCAG | 3480 fluorescence intensity (a.u.)
ACTTATCACGTTTATACTGTCGACAATATACCTACAATTGCGGAGTCACCTAGTGCAG | 3220 fluorescence intensity (a.u.)
ACTTGTCGGTCGTGACATCATACACGAGCGAAAAGGAGGACGGAGTCACCTAGTGCAG | 4770 fluorescence intensity (a.u.)
TACGTCGTCTGCCTCCGCAGCGCCACGCCGGACGCCACCGCGGAGTCACCTAGTGCAG | 4150 fluorescence intensity (a.u.)
CTTCTTCGGGCCTTCTTTCAGAACTTTGGGTGGGCCTCACCGGAGTCACCTAGTGCAG | 64300 fluorescence intensity (a.u.)
AGATTTGTGTGTGTGGTTGCTGTTGCTGTGTGTGAATGGACGGAGTCACCTAGTGCAG | 4110 fluorescence intensity (a.u.)

Another view of some results above:
Sequence	binding signal
CCACTTTTATCTTGAAATATTACATCAGCAATCTAGAAAACGGAGTCACCTAGTGCAG	3740 fluorescence intensity (a.u.)
GTCTTCACAAATCCGATGACGCCACGTCATCTATCCGGCCCGGAGTCACCTAGTGCAG	46400 fluorescence intensity (a.u.)
TATAAGTTCGGTGTTACGTGTGCAGTGGTGTAGTGGTGCGCGGAGTCACCTAGTGCAG	5760 fluorescence intensity (a.u.)
CGAGACCATCGGCGGCCACGCTCTTACACGCCATCAACCGCGGAGTCACCTAGTGCAG	5440 fluorescence intensity (a.u.)
AACCTAGTGTCAGCTACCTATTTCCCACCATCCTCAGCTACGGAGTCACCTAGTGCAG	3320 fluorescence intensity (a.u.)
AAGTAGTCCTAGCTAGTGCTGCGTCCAGTTTTGTTTCTTGCGGAGTCACCTAGTGCAG	19400 fluorescence intensity (a.u.)
GTTGCTCGGATCGGATAAGACAATACAGTTATTTGTGTTACGGAGTCACCTAGTGCAG	8900 fluorescence intensity (a.u.)

(further entries)

Sequence | binding signal
CTAGAACGTACGGGCTGAAATCAATCTTGGGTTTCTACTGCGGAGTCACCTAGTGCAG | 3280 fluorescence intensity (a.u.)
CTACGGAGCATGCCACATAGGCAAAACCACGGTCAAACAACGGAGTCACCTAGTGCAG | 6090 fluorescence intensity (a.u.)
CGCACGCTAGAGTGTCGTCATCGTTGCCGCTGCTGCTGGGCGGAGTCACCTAGTGCAG | 3450 fluorescence intensity (a.u.)
CGAATGTTTTCCCGATGGGAGCCACGTGTCCTCGTGTGGACGGAGTCACCTAGTGCAG | 23100 fluorescence intensity (a.u.)
AAGATAAGCATCGCGTCATGGCCCAGCTCGGAGGAGGAGCCGGAGTCACCTAGTGCAG | 3250 fluorescence intensity (a.u.)
GATGTTGATGCCACCGTGGTTGCCGACGGGCAGGTGTGATCGGAGTCACCTAGTGCAG | 3830 fluorescence intensity (a.u.)
TGGTGTTAGCTCACGTGAAAAGTCTTGCCTTCCAGACTGCCGGAGTCACCTAGTGCAG | 19300 fluorescence intensity (a.u.)
TGCATGCGATACTGTCTTATCATGGACCGCTCCACCCCTCCGGAGTCACCTAGTGCAG | 3380 fluorescence intensity (a.u.)
TTAAATATAAGGCGCAACTATCATTAAAATATGATATCGTCGGAGTCACCTAGTGCAG | 37800 fluorescence intensity (a.u.)
TTGTGCAGGTGACGCTGCAGATTGCATATGGTATGGGTTTCGGAGTCACCTAGTGCAG | 3960 fluorescence intensity (a.u.)
TCGATCGGGCTCGGAGACGTCGACGCCGACGAGGAGCTCCCGGAGTCACCTAGTGCAG | 3230 fluorescence intensity (a.u.)
TAAAAGATTCGTCTCGCAATTTACACGCAATCTGTATAATCGGAGTCACCTAGTGCAG | 3860 fluorescence intensity (a.u.)
TCGTCGTCGTCGTCTAGGAAGGTGAAGCCGGTGACGACGACGGAGTCACCTAGTGCAG | 3680 fluorescence intensity (a.u.)
GGTGTGCATGCGTGCCGGTTACGTGGTGAAGGGGCTGCTGCGGAGTCACCTAGTGCAG | 3930 fluorescence intensity (a.u.)
AGTGGATGAGTTTGAGTTTTAGGATTTAGTGGGGTATTATCGGAGTCACCTAGTGCAG | 3450 fluorescence intensity (a.u.)
TCACCTTGCATCCCAGAAAATCCACACGCCGACGTGGCGGCGGAGTCACCTAGTGCAG | 18100 fluorescence intensity (a.u.)
GTGGATTTTCTAGGACAAAAGGAGTGTGTGATGCCATTGTCGGAGTCACCTAGTGCAG | 14700 fluorescence intensity (a.u.)
GGGGTGCCACACACACGTACGTACGGGAGGATCAGTGCAACGGAGTCACCTAGTGCAG | 3450 fluorescence intensity (a.u.)
GGGGCAGCCATGTCATTTCCCCGCCAAGAAACTATCTCCACGGAGTCACCTAGTGCAG | 5190 fluorescence intensity (a.u.)
AAATGGTTCTACAAATGAACCAGGTACTGTAGTTGAATTCCGGAGTCACCTAGTGCAG | 33700 fluorescence intensity (a.u.)
GCCCGCGCGCGCGGGAACACACGTATACGCATGTGGAGGCCGGAGTCACCTAGTGCAG | 3390 fluorescence intensity (a.u.)

Source: article PMC7819943, “Rice protein-binding microarrays: a tool to detect cis-acting elements near promoter regions in rice”
